Test results: patent EP2647374A1, “Nutritional compositions including beta-hydroxy-beta-methylbutyrate for regulating transcription factors” (Abbott Laboratories, Inc., priority 2012, dated 2013)
For at least one compound, name, drawing or mass did not settle the structure.

Assays:
Assay type in all cases: cell-based, rat
[1] = system: atrogin-1
Method: Atrogin-1 analysis. L6 myotubes were pre-incubated with HMB 25 µM or Leu 10 mM for 48 hours. Then, dexamethasone 5 µM was added for another 48 hours. After treatment, cells were lysed with RIPA buffer (Sigma) supplemented with inhibitor protease cocktail (Sigma). Lysates were sonicated and protein concentration was measured using the Bio-Rad Protein Assay. Proteins (40 µg) were separated by SDS-PAGE and immunoblotted with anti-atrogin antibody.
L6 Myoblasts were differentiated to myotubes for 3 days in 2% FBS. Cells were deprived of FBS for 12 hours and incubated with HMB (25 µM) or Leu (10 mM) and insulin (100 nmol/l) in the absence or presence of dexamethasone (5 µM) for 30 minutes. Cells were lysed in phosphorylation buffer and analyzed by Western blot using an anti-phospho PKB/Akt antibody (FIG. 3A), anti-phospho mTOR antibody (FIG. 3B), or anti-atrogin-1 antibody (FIG. 3C). As a loading control, results were normalized using an anti-total PKB/Akt antibody, anti-total mTOR antibody, or an anti-Histone H3 antibody (see FIGS. 3A-3C, respectively). […] The lower panels of each of FIGS. 3A-3C show densitometric quantification of: phospho-PKB/total PKB protein abundance (FIG. 3A); phospho-mTOR/total mTOR protein abundance (FIG. 3B); or atrogin-1 protein abundance using Histone H3 (FIG. 3C) as a reference control. Results are expressed as means ± SEM of four independent experiments.

[2] = system: UbC promoter; assay: pGL3-UbC luciferase reporter assay in L6 myotubes; settings: pre-treatment HMB 25 µM or Leu 10 mM 48 hours, then dexamethasone 5 µM 48 hours
Excerpt: (§1) Reporter gene constructs. For the analysis of rat Ubiquitin (UbC) promoter, a 417 bp fragment of 417 bp flanking the transcription start point was amplified from rat genomic DNA. This fragment was similar to those that have been characterized for the human and rat promoters. The sequences of all constructs were verified by automated DNA sequencing. The Cignal FOXO Reporter (luc) kit, CCS-1022L, was provided by SABiosciences and contains a mixture of inducible FOXO-responsive firefly luciferase construct and constitutively expressing Renilla luciferase construct (40:1).
(§2) DNA transfection assays. For transfection experiments, cells were used at 80-90% confluence. […] Luciferase activity was determined using standard reagents (Dual Luciferase method, Promega) in a luminometer (Sirius L, Berthold Technologies, Bad Wildbad, Germany) and results were standardized for Renilla luciferase activity. […] To allow comparison of the expression patterns, the data were expressed as relative changes in luciferase activity and were normalized to a value of 100%.
Additionally, the effect of HMB and Leu on UbC promoter implicated in protein degradation induced by dexamethasone was analyzed. […] Results are expressed as means ± SEM of six independent experiments.

[3] = system: FOXO; assay: FOXO-responsive luciferase reporter assay in L6 cells
Excerpt: as §1, §2
To address whether the down-regulation of atrogin-1 in HMB- pretreated cells was accompanied by an underlying regulation of the FOXO transcription factor, the total FOXO expression (monitored by using FOXO-luciferase reporter gene activity) and the amount FOXO3a transcription factor in the nucleus were analyzed. […]

[4] = system: mTOR; assay: Western blot of phospho-mTOR vs total mTOR in L6 myotubes; settings: basal, without dexamethasone; HMB 25 µM or Leu 10 mM, 30 minutes
Method: (§3) Protein phosphorylation analysis. L6 myotubes were incubated with HMB or Leu in the absence or presence of dexamethasone for 30 minutes. After treatment, plates were flash frozen in liquid nitrogen and were scraped with 50 µl/60 mm/plate of cold 30 mmol/L Tris-HCl pH 7.4, 25 mmol/L NaCl, 1% (v/v) Triton X-100, 0.1% SDS, 10 mmol/L sodium fluoride, 10 mmol/L sodium pyrophosphate, 1 mmol/L sodium orthovanadate, 1 mmol/L EGTA, 20 nmol/L okadaic acid, 10 µg/ml aprotinin, 10 µg/ml leupeptin, 10 µg/ml pepstatin. After 10 minutes on ice, extracts were centrifuged at 13000 g for 10 minutes at 4°C. Protein concentration from the supernatants was measured using the Bio-Rad Protein Assay. […]
(§4) L6 Myoblasts were differentiated to myotubes for 3 days in 2% FBS. […] Cells were lysed in phosphorylation buffer and analyzed by Western blot using an anti-phospho PKB/Akt antibody (FIG. 3A), anti-phospho mTOR antibody (FIG. 3B), or anti-atrogin-1 antibody (FIG. 3C). […] The lower panels of each of FIGS. 3A-3C show densitometric quantification of: phospho-PKB/total PKB protein abundance (FIG. 3A); phospho-mTOR/total mTOR protein abundance (FIG. 3B); or atrogin-1 protein abundance using Histone H3 (FIG. 3C) as a reference control. Results are expressed as means ± SEM of four independent experiments.

[5] = system: ERK1/2; assay: Western blot of phospho-ERK1/2 vs total ERK1/2 in L6 myotubes; settings: HMB 25 µM or Leu 10 mM, 30 minutes
Method: Protein phosphorylation analysis. L6 myotubes were incubated with HMB or Leu in the absence or presence of dexamethasone for 30 minutes. After treatment, plates were flash frozen in liquid nitrogen and were scraped with 50 µl/60 mm/plate of cold 30 mmol/L Tris-HCl pH 7.4, 25 mmol/L NaCl, 1% (v/v) Triton X-100, 0.1% SDS, 10 mmol/L sodium fluoride, 10 mmol/L sodium pyrophosphate, 1 mmol/L sodium orthovanadate, 1 mmol/L EGTA, 20 nmol/L okadaic acid, 10 µg/ml aprotinin, 10 µg/ml leupeptin, 10 µg/ml pepstatin. After 10 minutes on ice, extracts were centrifuged at 13000 g for 10 minutes at 4°C. Protein concentration from the supernatants was measured using the Bio-Rad Protein Assay. Proteins (25-40 µg) were separated by SDS-PAGE and immunoblotted with selected antibodies; the immunoblots were developed by chemiluminescence detection.
Taking into account that phosphorylation of FOXO3a by ERK is a required step for FOXO3a ubiquitination and subsequent proteosomal degradation of this transcription factor in the cytoplasm, the effect of HMB and Leu on ERK activation was also analyzed. Specifically, L6 Myoblasts were differentiated to myotubes for 3 days in 2% FBS. […] Cells were lysed in phosphorylation buffer and analyzed by Western blot using an anti-phospho ERK1/2 antibody. […] Results are expressed as means ± SEM of four independent experiments.

[6] = system: FOXO3a; assay: Western blot of FOXO3a in nuclear extracts of L6 cells (Histone H3 reference)
Method: Preparation of nuclear extracts. Nuclear extracts from L6 cells were prepared following Bhavsar et al. Protein concentration was measured in nuclear extracts using the Bio-Rad Protein Assay kit. Aliquots of the extracts (40 µg) were resolved by 10% SDS-PAGE and analyzed by immunoblotting using a 1:1000 dilution of polyclonal anti-FOXO3a or anti-Histone H3 antibodies. The antigen-antibody complexes were detected with HRP-conjugated secondary antibodies using a chemiluminescence detection system (Bio-Rad).
To address whether the down-regulation of atrogin-1 in HMB- pretreated cells was accompanied by an underlying regulation of the FOXO transcription factor, the total FOXO expression (monitored by using FOXO-luciferase reporter gene activity) and the amount FOXO3a transcription factor in the nucleus were analyzed. L6 Myoblasts were differentiated to myotubes for 3 days in 2% FBS. After the differentiation process, medium was changed to 10% FBS for the remainder of the experiment. Myotubes were incubated in the presence or absence of HMB (25 µM) or Leu (10 mM) for 48 hours. […]
Further, L6 untransfected cells were treated as above, nuclear extracts were obtained as described in the material and methods section and analyzed by Western blot using an anti-FOXO3 antibody. […] Results are expressed as means ± SEM of four independent experiments.

[7] = system: PKB/Akt; assay: Western blot of phospho-PKB/Akt vs total PKB/Akt in L6 myotubes; settings: basal, without dexamethasone; HMB 25 µM or Leu 10 mM, 30 minutes
Method: as §3, §4

[8] = basal conditions, absence of dexamethasone, HMB 25 µM or Leu 10 mM
[9] = pre-treatment HMB 25 µM or Leu 10 mM 48 hours, then dexamethasone 5 µM 12 hours

Which “amount of atrogin-1” value ([1]; effector alone, without dexamethasone, HMB 25 µM) does the source give for `CC(C)(O)CC(=O)O` [HMB, beta-hydroxy-beta-methylbutyrate] here?
The value was “did not influence the amount of atrogin-1”.

What about the “dexamethasone induced atrogin-1 expression” value ([1]; pre-treatment HMB 25 µM or Leu 10 mM, then dexamethasone 5 µM) of the same compound?
The value was “significantly blunted the dexamethasone induced atrogin-1 expression”.

And the “counteraction of the effects of dexamethasone on Ub-C promoter activity” value [2]?
The value was “only HMB was able to significantly counteract the effects of dexamethasone on Ub-C promoter activity”.

And the FOXO basal activity [3, 8]?
The FOXO basal activity was “neither HMB nor Leu were able to significantly change FOXO basal activity or amount”.

What about the “FOXO overexpression induced by dexamethasone (reporter activity)” value [3, 9] of the same compound?
The value was “sharply reduced FOXO overexpression and FOXO3a nuclear translocation induced by dexamethasone”.

What about the “phosphorylative state of mTOR” value [4] of the same compound?
Its value is “significantly stimulated the phosporylative state of Akt and mTOR”.

What about the “ERK activation (phospho-ERK/total ERK)” value ([5]; atrophic conditions (dexamethasone 5 µM)) of the same compound?
The value was “induced an activation of ERK kinase either at basal or at atrophic conditions”.

And the “ERK activation (phospho-ERK/total ERK)” value ([5]; basal conditions)?
The value was “induced an activation of ERK kinase either at basal or at atrophic conditions”.

What about the “FOXO basal amount (nuclear FOXO3a)” value [6, 8] of the same compound?
The value was “neither HMB nor Leu were able to significantly change FOXO basal activity or amount”.

And the “FOXO3a nuclear translocation induced by dexamethasone” value [6, 9]?
The value was “sharply reduced FOXO overexpression and FOXO3a nuclear translocation induced by dexamethasone”.

What about the “phosphorylative state of Akt” value [7] of the same compound?
The value was “significantly stimulated the phosporylative state of Akt and mTOR”.
